Measured values as given in publication PMC8647145, “Foxd3 controls heterochromatin‐mediated repression of repeat elements and 2‐cell state transcription”.
Construct, isoform or probe ends are uncertain for at least one entry. Negatives hold for the conditions tested. At least one verdict rests on a figure or table, not on a statement of the authors.

The chains behind the UniProt entries cited, without tags or fusion partners. Where a name states a change or a piece, a line headed by the entry shows the natural chain unless it says otherwise.
UniProt Q61060: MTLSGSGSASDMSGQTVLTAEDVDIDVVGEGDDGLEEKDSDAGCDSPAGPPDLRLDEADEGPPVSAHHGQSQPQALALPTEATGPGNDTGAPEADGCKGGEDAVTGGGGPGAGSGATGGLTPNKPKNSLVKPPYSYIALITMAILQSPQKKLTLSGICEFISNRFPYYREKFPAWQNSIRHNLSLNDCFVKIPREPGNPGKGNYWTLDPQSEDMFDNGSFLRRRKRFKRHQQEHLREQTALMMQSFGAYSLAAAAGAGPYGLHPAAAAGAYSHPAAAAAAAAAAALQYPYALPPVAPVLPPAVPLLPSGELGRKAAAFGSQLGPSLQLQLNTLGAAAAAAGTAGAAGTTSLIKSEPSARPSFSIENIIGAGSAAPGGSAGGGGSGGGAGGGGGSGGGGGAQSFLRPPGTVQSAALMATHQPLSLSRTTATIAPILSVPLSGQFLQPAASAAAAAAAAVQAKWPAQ

Legend:
[1] = target: GST-FOXD3 M1 YSY>RAD (mouse) (UniProt Q61060); experiment: EMSA; conditions: up to 5 uM protein, EMSA: 50 nM DNA, 20 mM Tris-HCl pH 8.0, 100 mM KCl, 3 mM MgCl2, 1 mM EDTA, 5% glycerol, 0.05% NP-40, 2 mM DTT, 50 ng/ml yeast tRNA, 2.5 ng/ml BSA, 4 C, 1 h, recombinant protein, residues 1-465, protein details: N-terminal GST (pGEX-6P1), label: 5'-Cy5
[2] = target: GST-FOXD3 M2 FVK>VAM (mouse) (UniProt Q61060); experiment: EMSA; conditions: up to 5 uM protein, EMSA: 50 nM DNA, 20 mM Tris-HCl pH 8.0, 100 mM KCl, 3 mM MgCl2, 1 mM EDTA, 5% glycerol, 0.05% NP-40, 2 mM DTT, 50 ng/ml yeast tRNA, 2.5 ng/ml BSA, 4 C, 1 h, recombinant protein, residues 1-465, protein details: N-terminal GST (pGEX-6P1), label: 5'-Cy5
[3] = oligo called only MERVL, LTR presumed

CAGCTGTGTTCTAAGTGGTAAACAAATAATCTGCG (double strand) [MERVL-LTR]
binding result [1, 3]: no binding
binding result [2, 3]: no binding

CTGAAAATCATGGAAAATGAGAAACATCCACTTGA (double strand) [MSR]
binding result [1]: no binding
binding result [2]: no binding
